Some of the results follow.
Tests used:
Experiment in all cases: log2 fold change, soluble protein after heating vs DMSO (PISA); higher = thermal stabilisation; K562 lysate, 10 uM; active = over 0.2 and 3.5 SD of the protein, either way, in both replicates (recomputed)
[1] = compound: C1=CC=C(C=C1)[C@H](COC2=CC3=C(C=C2)NC(=O)N3)NC(=O)C4=CC=CN(C4=O)CC5=CC(=C(C=C5)F)F
In short: (§1)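 K562 pellets were dounce-homogenised in PBS pH 7.4 containing 1 mM MgCl2, and the crude extract, at 1 mg/mL protein, was exposed to 10 μM compound for 30 min. Aliquots were heated for 3 min across 48°C-58°C, pooled, brought to 0.5% NP-40 at 4°C and spun at 21,000xg for 90 min, with the supernatant taken as soluble protein. TMTpro 16plex LC-MS/MS with equalised channel sums quantified that protein. Values are log-two fold changes in thermal stability relative to solvent controls, taken from duplicates.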

By UniProt entry, the sequences of proteins in these tests, tags left out. Where a name states a change or a piece, a line headed by the entry shows the natural chain unless it says otherwise.
UniProt Q10713: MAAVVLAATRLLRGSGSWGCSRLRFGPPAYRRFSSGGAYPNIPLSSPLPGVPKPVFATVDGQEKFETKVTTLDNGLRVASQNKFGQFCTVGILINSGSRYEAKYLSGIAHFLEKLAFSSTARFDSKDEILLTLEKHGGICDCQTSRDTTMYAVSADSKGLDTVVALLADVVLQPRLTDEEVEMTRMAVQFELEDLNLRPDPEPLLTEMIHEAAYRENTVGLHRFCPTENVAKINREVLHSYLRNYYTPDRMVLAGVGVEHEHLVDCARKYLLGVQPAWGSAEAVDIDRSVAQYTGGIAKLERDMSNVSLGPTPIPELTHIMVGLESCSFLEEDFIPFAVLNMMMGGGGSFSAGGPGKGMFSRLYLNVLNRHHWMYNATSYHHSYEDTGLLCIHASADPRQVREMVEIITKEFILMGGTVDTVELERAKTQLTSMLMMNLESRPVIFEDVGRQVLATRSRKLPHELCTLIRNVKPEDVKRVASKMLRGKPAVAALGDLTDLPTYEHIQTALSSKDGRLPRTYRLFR
UniProt Q9NQ55: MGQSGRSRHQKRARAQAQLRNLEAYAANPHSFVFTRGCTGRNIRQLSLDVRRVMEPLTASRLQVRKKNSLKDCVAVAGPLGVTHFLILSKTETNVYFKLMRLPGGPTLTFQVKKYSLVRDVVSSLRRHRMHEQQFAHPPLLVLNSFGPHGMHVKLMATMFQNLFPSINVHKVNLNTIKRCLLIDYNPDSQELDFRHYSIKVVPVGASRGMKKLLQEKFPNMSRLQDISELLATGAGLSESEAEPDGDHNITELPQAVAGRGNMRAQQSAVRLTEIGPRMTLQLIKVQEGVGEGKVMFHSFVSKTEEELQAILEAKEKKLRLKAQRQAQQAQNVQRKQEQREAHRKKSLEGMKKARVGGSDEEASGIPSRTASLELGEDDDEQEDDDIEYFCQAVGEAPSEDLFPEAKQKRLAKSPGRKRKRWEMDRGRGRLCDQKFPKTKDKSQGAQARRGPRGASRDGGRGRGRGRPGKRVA
UniProt Q9NP80: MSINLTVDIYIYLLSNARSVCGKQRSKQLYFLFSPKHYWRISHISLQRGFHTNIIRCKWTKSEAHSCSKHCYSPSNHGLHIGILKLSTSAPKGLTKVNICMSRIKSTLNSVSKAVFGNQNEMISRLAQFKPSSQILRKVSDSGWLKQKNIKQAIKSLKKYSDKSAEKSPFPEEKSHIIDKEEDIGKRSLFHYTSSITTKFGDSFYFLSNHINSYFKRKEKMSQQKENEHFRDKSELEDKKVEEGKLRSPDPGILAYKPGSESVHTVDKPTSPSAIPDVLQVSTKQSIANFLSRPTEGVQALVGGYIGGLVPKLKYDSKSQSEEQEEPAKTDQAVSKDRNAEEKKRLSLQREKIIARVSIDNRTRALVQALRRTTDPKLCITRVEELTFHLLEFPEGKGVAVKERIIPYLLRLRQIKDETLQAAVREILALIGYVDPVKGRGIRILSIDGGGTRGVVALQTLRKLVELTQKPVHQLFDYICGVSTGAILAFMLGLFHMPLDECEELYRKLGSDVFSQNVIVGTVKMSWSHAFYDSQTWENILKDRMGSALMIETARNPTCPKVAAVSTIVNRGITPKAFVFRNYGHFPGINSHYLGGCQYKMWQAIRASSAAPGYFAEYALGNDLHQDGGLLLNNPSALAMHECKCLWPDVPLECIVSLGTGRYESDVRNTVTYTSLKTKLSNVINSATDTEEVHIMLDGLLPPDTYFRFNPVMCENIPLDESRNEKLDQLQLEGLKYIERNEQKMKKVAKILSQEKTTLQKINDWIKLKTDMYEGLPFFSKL
UniProt Q15165: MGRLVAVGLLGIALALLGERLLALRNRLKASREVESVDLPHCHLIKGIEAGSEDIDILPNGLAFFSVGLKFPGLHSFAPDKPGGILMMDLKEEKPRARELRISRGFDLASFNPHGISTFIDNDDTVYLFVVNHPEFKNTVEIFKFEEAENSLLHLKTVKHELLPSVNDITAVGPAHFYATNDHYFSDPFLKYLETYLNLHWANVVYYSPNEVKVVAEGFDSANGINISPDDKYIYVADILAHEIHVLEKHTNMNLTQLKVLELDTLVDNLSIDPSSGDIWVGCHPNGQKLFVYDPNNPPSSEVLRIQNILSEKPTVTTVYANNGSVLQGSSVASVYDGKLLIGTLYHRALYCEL
UniProt Q9NZ53: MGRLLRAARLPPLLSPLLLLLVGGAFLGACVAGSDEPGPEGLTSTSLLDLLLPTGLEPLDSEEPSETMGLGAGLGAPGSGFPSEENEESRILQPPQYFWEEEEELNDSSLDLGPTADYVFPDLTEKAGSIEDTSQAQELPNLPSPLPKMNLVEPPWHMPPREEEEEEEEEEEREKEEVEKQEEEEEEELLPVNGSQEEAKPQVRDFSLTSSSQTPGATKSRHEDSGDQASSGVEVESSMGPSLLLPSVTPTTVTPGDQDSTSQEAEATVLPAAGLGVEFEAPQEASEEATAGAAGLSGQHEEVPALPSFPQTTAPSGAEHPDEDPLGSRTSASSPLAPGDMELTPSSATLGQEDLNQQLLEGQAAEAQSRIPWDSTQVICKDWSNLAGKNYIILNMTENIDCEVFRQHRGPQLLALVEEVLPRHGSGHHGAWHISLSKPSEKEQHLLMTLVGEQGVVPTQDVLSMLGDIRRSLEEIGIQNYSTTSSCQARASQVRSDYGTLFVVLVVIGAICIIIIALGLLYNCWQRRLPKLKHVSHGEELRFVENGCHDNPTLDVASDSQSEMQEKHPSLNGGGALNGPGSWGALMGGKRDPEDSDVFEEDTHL
UniProt Q9Y244: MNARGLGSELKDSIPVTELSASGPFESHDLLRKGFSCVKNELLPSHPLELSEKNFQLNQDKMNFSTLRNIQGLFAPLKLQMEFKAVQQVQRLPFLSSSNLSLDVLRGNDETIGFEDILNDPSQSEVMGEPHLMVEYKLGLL
UniProt O15031: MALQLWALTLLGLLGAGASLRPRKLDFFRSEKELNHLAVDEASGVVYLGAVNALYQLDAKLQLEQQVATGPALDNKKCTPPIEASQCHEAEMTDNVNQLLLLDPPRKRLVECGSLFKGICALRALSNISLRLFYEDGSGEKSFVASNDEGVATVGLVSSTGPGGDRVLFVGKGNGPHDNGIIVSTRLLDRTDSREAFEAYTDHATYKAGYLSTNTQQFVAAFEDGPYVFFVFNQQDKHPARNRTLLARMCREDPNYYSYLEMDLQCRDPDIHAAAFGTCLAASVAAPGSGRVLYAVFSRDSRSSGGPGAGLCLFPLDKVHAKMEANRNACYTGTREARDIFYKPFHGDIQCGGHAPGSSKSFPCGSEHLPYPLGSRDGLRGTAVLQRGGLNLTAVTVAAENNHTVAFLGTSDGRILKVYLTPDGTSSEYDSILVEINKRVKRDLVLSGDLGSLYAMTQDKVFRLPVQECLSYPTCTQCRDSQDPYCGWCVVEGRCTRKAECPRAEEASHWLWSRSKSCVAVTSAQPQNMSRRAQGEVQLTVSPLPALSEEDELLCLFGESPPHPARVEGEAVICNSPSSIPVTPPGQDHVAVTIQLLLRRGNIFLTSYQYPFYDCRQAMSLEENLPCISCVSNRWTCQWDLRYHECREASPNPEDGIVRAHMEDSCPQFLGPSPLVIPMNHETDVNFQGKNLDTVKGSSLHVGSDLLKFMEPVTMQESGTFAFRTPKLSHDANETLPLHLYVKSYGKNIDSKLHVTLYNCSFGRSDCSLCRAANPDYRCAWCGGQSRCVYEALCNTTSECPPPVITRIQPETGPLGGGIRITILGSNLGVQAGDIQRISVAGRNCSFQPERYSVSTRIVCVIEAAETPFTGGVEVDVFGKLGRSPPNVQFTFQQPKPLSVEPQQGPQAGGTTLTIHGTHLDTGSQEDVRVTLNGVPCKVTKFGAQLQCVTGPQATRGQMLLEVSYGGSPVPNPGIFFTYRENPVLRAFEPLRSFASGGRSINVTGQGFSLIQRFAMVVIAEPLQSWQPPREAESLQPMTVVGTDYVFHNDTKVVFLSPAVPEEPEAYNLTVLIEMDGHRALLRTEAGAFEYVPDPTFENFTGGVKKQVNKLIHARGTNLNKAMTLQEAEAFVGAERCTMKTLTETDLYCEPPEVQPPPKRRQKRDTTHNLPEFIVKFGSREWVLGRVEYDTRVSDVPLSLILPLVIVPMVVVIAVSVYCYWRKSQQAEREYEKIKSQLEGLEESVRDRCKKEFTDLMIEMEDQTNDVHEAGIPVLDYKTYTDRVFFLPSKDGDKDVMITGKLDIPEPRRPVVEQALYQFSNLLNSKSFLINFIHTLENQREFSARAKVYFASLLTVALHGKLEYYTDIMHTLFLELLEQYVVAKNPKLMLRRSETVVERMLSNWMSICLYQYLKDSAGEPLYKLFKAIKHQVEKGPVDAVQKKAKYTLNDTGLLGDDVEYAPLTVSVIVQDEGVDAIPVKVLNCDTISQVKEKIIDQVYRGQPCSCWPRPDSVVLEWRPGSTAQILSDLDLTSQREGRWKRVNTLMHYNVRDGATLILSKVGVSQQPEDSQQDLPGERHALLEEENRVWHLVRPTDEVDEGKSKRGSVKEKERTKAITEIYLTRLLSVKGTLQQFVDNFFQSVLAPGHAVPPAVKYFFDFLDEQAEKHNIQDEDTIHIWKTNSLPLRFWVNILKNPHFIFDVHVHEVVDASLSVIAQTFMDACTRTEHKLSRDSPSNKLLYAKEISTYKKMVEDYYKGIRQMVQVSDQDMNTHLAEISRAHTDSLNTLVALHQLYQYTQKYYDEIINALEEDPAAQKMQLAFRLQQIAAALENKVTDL
UniProt Q8IY17: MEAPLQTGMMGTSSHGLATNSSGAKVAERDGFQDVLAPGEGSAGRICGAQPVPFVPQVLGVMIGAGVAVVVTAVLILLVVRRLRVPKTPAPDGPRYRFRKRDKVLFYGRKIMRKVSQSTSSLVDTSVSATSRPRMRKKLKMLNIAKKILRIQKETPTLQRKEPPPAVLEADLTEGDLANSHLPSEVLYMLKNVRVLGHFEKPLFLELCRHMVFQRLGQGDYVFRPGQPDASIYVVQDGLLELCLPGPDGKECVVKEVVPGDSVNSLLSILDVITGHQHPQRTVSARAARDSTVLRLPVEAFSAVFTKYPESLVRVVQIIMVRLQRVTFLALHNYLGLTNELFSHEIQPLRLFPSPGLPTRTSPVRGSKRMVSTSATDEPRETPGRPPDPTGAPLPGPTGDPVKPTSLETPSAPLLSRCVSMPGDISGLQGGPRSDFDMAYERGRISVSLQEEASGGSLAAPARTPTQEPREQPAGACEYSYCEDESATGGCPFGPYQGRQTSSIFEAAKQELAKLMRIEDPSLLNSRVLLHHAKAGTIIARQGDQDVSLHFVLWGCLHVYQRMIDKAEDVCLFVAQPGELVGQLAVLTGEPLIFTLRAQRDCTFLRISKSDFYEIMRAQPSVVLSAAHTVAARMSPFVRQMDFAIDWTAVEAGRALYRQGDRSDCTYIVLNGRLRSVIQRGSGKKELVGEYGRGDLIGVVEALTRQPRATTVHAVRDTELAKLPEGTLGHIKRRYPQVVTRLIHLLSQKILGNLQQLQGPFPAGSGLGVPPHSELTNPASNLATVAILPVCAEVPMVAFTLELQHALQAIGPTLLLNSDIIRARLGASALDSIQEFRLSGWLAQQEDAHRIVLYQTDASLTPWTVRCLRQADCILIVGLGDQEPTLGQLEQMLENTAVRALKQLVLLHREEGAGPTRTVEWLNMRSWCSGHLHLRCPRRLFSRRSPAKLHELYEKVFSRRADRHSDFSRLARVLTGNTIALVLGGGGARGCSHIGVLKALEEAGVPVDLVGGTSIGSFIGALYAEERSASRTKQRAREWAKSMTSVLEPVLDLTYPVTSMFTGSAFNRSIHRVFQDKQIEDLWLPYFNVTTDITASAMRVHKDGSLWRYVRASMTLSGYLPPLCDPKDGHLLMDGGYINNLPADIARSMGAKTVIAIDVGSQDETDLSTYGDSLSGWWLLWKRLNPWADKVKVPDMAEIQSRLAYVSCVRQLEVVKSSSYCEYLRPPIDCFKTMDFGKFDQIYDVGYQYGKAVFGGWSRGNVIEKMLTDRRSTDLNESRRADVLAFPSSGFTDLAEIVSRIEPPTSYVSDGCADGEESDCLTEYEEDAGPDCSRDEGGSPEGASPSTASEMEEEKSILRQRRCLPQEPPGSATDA
UniProt O15318: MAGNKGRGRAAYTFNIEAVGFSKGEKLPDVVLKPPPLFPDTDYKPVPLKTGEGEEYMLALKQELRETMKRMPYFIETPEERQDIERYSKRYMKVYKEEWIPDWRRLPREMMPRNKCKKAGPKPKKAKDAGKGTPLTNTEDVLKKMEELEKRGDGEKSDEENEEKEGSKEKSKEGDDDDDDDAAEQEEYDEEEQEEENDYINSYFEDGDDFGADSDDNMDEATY
UniProt Q6P1K2: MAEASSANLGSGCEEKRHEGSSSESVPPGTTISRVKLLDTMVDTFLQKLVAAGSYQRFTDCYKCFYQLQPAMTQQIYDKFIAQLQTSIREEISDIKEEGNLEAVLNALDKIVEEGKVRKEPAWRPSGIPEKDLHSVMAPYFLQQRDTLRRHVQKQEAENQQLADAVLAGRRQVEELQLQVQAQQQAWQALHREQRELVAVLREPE

[2] = compound: CC1=C(SC2=C1C(=N[C@H](C3=NN=C(N32)C)CC(=O)N)C4=CC=C(C=C4)Cl)C
In short: as §1

[3] = compound: CC1=C2C(=CC=C1)N=C(N(C2=O)C3=CC=CC=C3C)CN4C=NC5=C(N=CN=C54)N
In short: as §1

[4] = compound: Cc1sc2c(c1C)C(c1ccc(Cl)cc1)=N[C@@H](CC(=O)OC(C)(C)C)c1nnc(C)n1-2
In short: as §1

[5] = compound: c1ccc([C@@H]2C[C@H]2NC2CCNCC2)cc1
In short: as §1

Measured: log2 fold change

PMPCA (UniProt Q10713)
inactive: [1] 0.019 | [2] 0.031 | [3] 0.028 | [4] -0.013 | [5] -0.012

PLP2 (UniProt Q04941)
inactive: [1] -0.026 | [2] 0.203 | [3] 0.033 | [4] 0.159 | [5] -0.09

PPAN isoform 3 (UniProt Q9NQ55)
inactive: [1] 0.011 | [2] 0.006 | [3] 0.019 | [4] -0.008 | [5] 0.006

PNN (UniProt Q9H307)
inactive: [1] 0.017 | [2] -0.036 | [3] 0.029 | [4] 0.031 | [5] -0.031

POLR2M (UniProt P0CAP2)
inactive: [1] 0.026 | [2] -0.005 | [3] 0.025 | [4] 0.024 | [5] 0.005

POLE (UniProt Q07864)
inactive: [1] -0.028 | [2] -0.045 | [3] -0.019 | [4] -0.013 | [5] 0

Quoted at random: 2 entries already listed
PLP2 (UniProt Q04941)
inactive: [1] -0.026 | [2] 0.203 | [3] 0.033 | [4] 0.159 | [5] -0.09

POLE (UniProt Q07864)
inactive: [1] -0.028 | [2] -0.045 | [3] -0.019 | [4] -0.013 | [5] 0

More results follow.

POLA1 (UniProt P09884)
inactive: [1] 0.006 | [2] 0.01 | [3] 0.037 | [4] -0.002 | [5] 0.002

PNO1 (UniProt Q9NRX1)
inactive: [1] -0.02 | [2] 0.001 | [3] 0.012 | [4] -0.003 | [5] 0.04

POLR3GL (UniProt Q9BT43)
inactive: [1] -0.049 | [2] 0.076 | [3] 0.052 | [4] -0.007 | [5] 0.078

PLXNA1 (UniProt Q9UIW2)
inactive: [1] 0.013 | [2] 0.015 | [3] 0.023 | [4] 0.001 | [5] -0.011

PPFIA3 (UniProt O75145)
inactive: [1] 0.106 | [2] 0.14 | [3] 0.012 | [4] -0.08 | [5] 0.076

PNPLA8 (UniProt Q9NP80)
inactive: [1] -0.249 | [2] -0.002 | [3] 0.059 | [4] 0.02 | [5] -0.015

PON2 (UniProt Q15165)
inactive: [1] 0.046 | [2] -0.069 | [3] 0.024 | [4] -0.099 | [5] 0.068

POLR2C (UniProt P19387)
inactive: [1] -0.041 | [2] -0.011 | [3] 0.036 | [4] 0.049 | [5] -0.007

POTEF (UniProt A5A3E0)
inactive: [1] -0.025 | [2] 0.074 | [3] 0.026 | [4] 0.015 | [5] -0.002

POLR2K (UniProt P53803)
inactive: [1] -0.011 | [2] 0.015 | [3] -0.035 | [4] 0.038 | [5] 0.046

PODXL2 (UniProt Q9NZ53)
inactive: [1] 0.037 | [2] 0.023 | [3] 0.057 | [4] -0.028 | [5] -0.065

POMP (UniProt Q9Y244)
inactive: [1] 0.077 | [2] -0.053 | [3] 0.045 | [4] -0.036 | [5] 0.061

PLXNB2 (UniProt O15031)
inactive: [1] -0.034 | [2] 0.037 | [3] 0.014 | [4] 0.004 | [5] -0.024

PNPLA6 (UniProt Q8IY17)
inactive: [1] 0.015 | [2] 0 | [3] -0.004 | [4] 0.014 | [5] 0.035

POLR3G (UniProt O15318)
inactive: [1] 0.025 | [2] 0.011 | [3] -0.018 | [4] -0.076 | [5] -0.068

PPID (UniProt Q08752)
inactive: [1] -0.001 | [2] 0.008 | [3] -0.013 | [4] 0.029 | [5] 0.095

PLOD3 (UniProt O60568)
inactive: [1] -0.024 | [2] 0.001 | [3] 0.012 | [4] 0.008 | [5] -0.004

POC5 (UniProt Q8NA72)
inactive: [1] 0.016 | [2] -0.052 | [3] 0.161 | [4] 0.17 | [5] -0.097

PMF1 (UniProt Q6P1K2)
inactive: [1] 0.147 | [2] -0.098 | [3] 0.018 | [4] -0.031 | [5] 0.091

From the supplement of paper PMC10849652
